From patent US20160311931A1
No constants are given. Whether binding was seen depends on the method and setting. Some results given as binding are weak or reduced against the parent protein; the word gives no strength.

By UniProt entry, the sequences of proteins in these tests, tags left out. Residues count along the entry.
UniProt P01375, residues 77-233: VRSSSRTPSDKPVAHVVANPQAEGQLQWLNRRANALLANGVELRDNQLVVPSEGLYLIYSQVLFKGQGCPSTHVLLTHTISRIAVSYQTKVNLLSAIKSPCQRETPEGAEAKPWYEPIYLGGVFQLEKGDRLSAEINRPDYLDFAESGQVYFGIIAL
UniProt P51742, residues 77-233: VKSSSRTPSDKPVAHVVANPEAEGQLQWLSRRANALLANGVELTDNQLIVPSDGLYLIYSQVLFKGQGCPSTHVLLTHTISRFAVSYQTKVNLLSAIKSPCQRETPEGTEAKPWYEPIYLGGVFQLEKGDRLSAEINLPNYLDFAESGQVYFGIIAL

How the values were obtained:
[1] = biological target: Recombinant human TNF-α (human) (UniProt P01375); assay: ELISA
[2] = biological target: canine TNF-α (canine) (UniProt P51742); assay: ELISA

B1: chimeric 4C9 anti-TNF-α antibody, clone 6A9 (antibody, V domains shown)
VH: VQLQESGPSLVKPSQTLSLTCSVTGDSITSGFWNWIRKFPGNKFEYMGYISYSGRTYYNPSLKSRLSITRDTSKNQFYLQLNSVTAEDTATYYCARDANYVLDYWGQGTTLTVSS
VL: DIQLTQSPSSLAMSVGQKVTMNCKSSQSLLNSSTQKNYLAWFQQKPGQSPKLLVYFASARESGVPDRFIGSGSGTDFTLTISSVQAEDLADYFCQQHYRTPFTFGSGTKLEIKR
binding [1]: binds | binding [2]: binds
